Counter-ions that a name gives are not always drawn.
Assay: Base excess (BE), potential base excess (BEpot) and Na-addition, derived
Conditions: for BE / BEpot / Na-addition: 10 mmol/l in blood: dilution 1:10 of a 100 mmol/l solution

Row | Structure (SMILES) | BE | BEpot | Na-addition | metabolic effect on the acid-base balance (in words)
1 | O=C(O)CC(O)(CC(=O)O)C(=O)O [NaH2 citrate] | -20 mmol/L | +10 mmol/l | 10 mmol/L | 
2 | CC(=O)O [acetic acid] |  |  |  | acts reversibly as acid
3 | Cl.N=C(N)NCCC[C@H](N)C(=O)O [Arg HCl, arginine hydrochloride] |  |  |  | acts as acid
4 | O=C(O)CC(O)(CC(=O)O)C(=O)O [Na3 citrate] | 0 mmol/L | +30 mmol/l | 30 mmol/L | 
5 | N=C(N)NCCC[C@H](N)C(=O)O.O=C(O)O [Arg HCO3] |  |  |  | acts neutral
6 | O=C(O)CC(O)(CC(=O)O)C(=O)O [citric acid] | -30 mmol/L | 0 mmol/L | 0 mmol/L | 
7 | CC(=O)[O-].[Na+] [sodium acetate] |  |  |  | acts irreversibly as alkalising
8 | O=C([O-])CC(O)(CC(=O)[O-])C(=O)O.[Na+].[Na+] [Na2H citrate] | -10 mmol/L | +20 mmol/l | 20 mmol/L | 
9 | Cl.N [ammonium chloride] |  |  |  | acts as acid

— US20140323573A1, “METABOLIZABLE SALTS AND USE THEREOF IN DIAGNOSTICS AND THERAPY” (priority 2011, published 2014)
